Test results from article PMC12409219, “Binding kinetics, bias, receptor internalization and effects on insulin secretion in vitro and in vivo of a novel GLP‐1R/GIPR dual agonist, HISHS‐2001” (Diabetes, Obesity & Metabolism, 2025).
Results are given in words; binding and its absence hold for the method and conditions named. Binding seen in cells or lysates may run through a third protein. Some results given as binding are weak or reduced against the parent protein; the word gives no strength.

By UniProt entry, the sequences of proteins in these tests, tags left out. Residues count along the entry.
UniProt P43220, residues 24-463: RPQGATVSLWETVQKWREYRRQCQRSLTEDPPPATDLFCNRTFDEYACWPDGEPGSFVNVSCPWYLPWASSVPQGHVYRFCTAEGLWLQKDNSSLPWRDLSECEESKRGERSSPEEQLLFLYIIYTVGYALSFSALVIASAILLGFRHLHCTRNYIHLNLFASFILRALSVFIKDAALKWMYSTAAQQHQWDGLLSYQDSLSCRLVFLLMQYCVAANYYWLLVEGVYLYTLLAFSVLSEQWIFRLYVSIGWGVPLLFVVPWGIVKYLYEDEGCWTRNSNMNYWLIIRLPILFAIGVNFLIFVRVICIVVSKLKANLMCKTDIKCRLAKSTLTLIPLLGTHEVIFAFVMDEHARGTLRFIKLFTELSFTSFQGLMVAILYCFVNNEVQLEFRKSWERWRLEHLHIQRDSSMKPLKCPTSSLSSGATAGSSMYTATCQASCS
UniProt P32121: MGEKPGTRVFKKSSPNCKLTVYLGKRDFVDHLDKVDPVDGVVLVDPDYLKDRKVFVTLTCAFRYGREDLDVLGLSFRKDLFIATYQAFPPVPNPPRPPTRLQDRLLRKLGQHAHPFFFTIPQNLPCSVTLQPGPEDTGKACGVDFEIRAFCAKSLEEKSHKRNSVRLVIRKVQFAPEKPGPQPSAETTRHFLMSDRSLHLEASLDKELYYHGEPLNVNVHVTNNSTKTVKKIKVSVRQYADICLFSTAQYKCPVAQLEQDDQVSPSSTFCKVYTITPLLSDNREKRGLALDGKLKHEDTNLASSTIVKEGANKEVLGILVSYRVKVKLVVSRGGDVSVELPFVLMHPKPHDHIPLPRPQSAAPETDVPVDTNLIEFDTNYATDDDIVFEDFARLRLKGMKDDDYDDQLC

Molecular target: GLP‐1R of DiscoverX GLP‐1R‐β‐arrestin 2 cells (UniProt P43220)
Experiment: split reporter; DiscoverX (PathHunter) GLP‐1R‐β‐arrestin 2 cells; 30‐min stimulation with semaglutide, HISHS‐2001 or tirzepatide in serum‐free medium with 0.1% BSA; β‐arrestin detection reagents, luminescence; normalised to the maximal fitted semaglutide response

β‐arrestin 2 of DiscoverX GLP‐1R‐β‐arrestin 2 cells (from UniProt P32121 1-409)
binding: binds
